According to paper PMC9010950:
These are yes or no findings as the source states them, for the method shown. In cells and extracts the contact can be indirect. Some binding calls cover weakened binding; strength is not graded here. Tags and fused reporters may be left off the sequences shown.

Target: T1, carboxypeptidase N1 (CPN1), overexpressed from pCMV3-SP-Flag-CPN1 (UniProt P15169)
T1 sequence: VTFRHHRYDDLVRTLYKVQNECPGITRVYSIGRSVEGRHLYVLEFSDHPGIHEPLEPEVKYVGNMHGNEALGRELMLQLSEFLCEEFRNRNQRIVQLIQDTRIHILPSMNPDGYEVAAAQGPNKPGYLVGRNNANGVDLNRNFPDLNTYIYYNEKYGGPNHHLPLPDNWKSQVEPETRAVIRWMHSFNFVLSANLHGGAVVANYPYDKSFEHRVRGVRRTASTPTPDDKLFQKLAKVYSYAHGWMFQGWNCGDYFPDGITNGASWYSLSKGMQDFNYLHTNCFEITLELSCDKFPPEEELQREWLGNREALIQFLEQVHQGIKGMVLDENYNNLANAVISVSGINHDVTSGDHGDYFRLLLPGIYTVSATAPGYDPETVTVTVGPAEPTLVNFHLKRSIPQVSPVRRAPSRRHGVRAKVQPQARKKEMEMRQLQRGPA
Experiment: co-IP; 293T cells; Co-IP Kit (Thermo Fisher Scientific); part of the eluate subjected to SDS-PAGE; validation blot of Figure 1C

- binding: binds
B1: retinoic acid-induced protein 14 (RAI14) (protein, UniProt Q9P0K7 1-980)
chain: MKSLKAKFRKSDTNEWNKNDDRLLQAVENGDAEKVASLLGKKGASATKHDSEGKTAFHLAAAKGHVECLRVMITHGVDVTAQDTTGHSALHLAAKNSHHECIRKLLQSKCPAESVDSSGKTALHYAAAQGCLQAVQILCEHKSPINLKDLDGNIPLLLAVQNGHSEICHFLLDHGADVNSRNKSGRTALMLACEIGSSNAVEALIKKGADLNLVDSLGYNALHYSKLSENAGIQSLLLSKISQDADLKTPTKPKQHDQVSKISSERSGTPKKRKAPPPPISPTQLSDVSSPRSITSTPLSGKESVFFAEPPFKAEISSIRENKDRLSDSTTGADSLLDISSEADQQDLLSLLQAKVASLTLHNKELQDKLQAKSPKEAEADLSFDSYHSTQTDLGPSLGKPGETSPPDSKSSPSVLIHSLGKSTTDNDVRIQQLQEILQDLQKRLESSEAERKQLQVELQSRRAELVCLNNTEISENSSDLSQKLKETQSKYEEAMKEVLSVQKQMKLGLVSPESMDNYSHFHELRVTEEEINVLKQDLQNALEESERNKEKVRELEEKLVEREKGTVIKPPVEEYEEMKSSYCSVIENMNKEKAFLFEKYQEAQEEIMKLKDTLKSQMTQEASDEAEDMKEAMNRMIDELNKQVSELSQLYKEAQAELEDYRKRKSLEDVTAEYIHKAEHEKLMQLTNVSRAKAEDALSEMKSQYSKVLNELTQLKQLVDAQKENSVSITEHLQVITTLRTAAKEMEEKISNLKEHLASKEVEVAKLEKQLLEEKAAMTDAMVPRSSYEKLQSSLESEVSVLASKLKESVKEKEKVHSEVVQIRSEVSQVKREKENIQTLLKSKEQEVNELLQKFQQAQEELAEMKRYAESSSKLEEDKDKKINEMSKEVTKLKEALNSLSQLSYSTSSSKRQSQQLEALQQQVKQLQNQLAECKKQHQEVISVYRMHLLYAVQGQMDEDVQKVLKQILTMCKNQSQKK
